Assay results: article PMC9310128
Results are given in words; binding and its absence hold for the method and conditions named. Binding seen in cells or lysates may run through a third protein. Binding can be weak; no strength is given.

Biological target: T1, Biotinylated PEP3
T1 sequence (peptide, biotin (position not stated); cyclic peptide): CPATAERPC
Experiment: pull-down; 30 ug biotinylated PEP3 on streptavidin-coated magnetic beads, 800 ug of SAT SVF lysate (WT and TrkA EC KO), overnight at 4 °C, washed with 0.05% Tween-20 TBS; anti-TrkA immunoblot; only the target purified

- binding: binds
Substance: TrkA, smaller isoform (arrowhead in Figure 1F) (mouse (endogenous in adipose tissue)) (receptor)
